The target of experiment [1] is canine ISG15 (canine). The experiment in a line: SEC; both purified.
Another experiment has as its target cISG15-L16A (canine). The experiment in a line: ITC; isothermal titration calorimetry of NS1B-NTR and ISG15 proteins; which was titrated and the conditions are not told in the text shown; both purified. (In general: Isothermal titration calorimetry measures the heat released or taken up as one component is titrated into another.)
The target in experiment [2] is canine ISG15 (canine). Briefly: crystal structure; crystal structures of NS1B-NTR in complex with mISG15, cISG15 or bISG15; both purified.

No constants are given. Whether binding was seen depends on the method and setting. For part of these data: Binding calls can cover weak binding; strength is not graded here.

For the substance “NS1B-NTR, containing the 103 N-terminal residues of NS1B (influenza B virus NS1 protein) (from UniProt P03502 1-103) (domain or fragment)”, the values for the binding entry with canine ISG15 (canine) [1], in the experiment with cISG15-L16A (canine) and with canine ISG15 (canine) [2] were “binds”, “no binding” and “binds”, respectively.

These data come from publication PMC6711944.
